# No constants are given. Whether binding was seen depends on the method and setting. Some binding calls cover weakened binding; strength is not graded here. For part of these data: Tags and fused reporters may be left off the sequences shown.
# B1: NJT4 nanobody (VHH) (VHH)
# VHH: QVQLVESGGGLVQPGGSLRLSCAASGFTFSSYTMRWYRQAPGKERELVAFIGVAGGSTKYADSVKGRFTISRDNTKNTVYLQMNTLKPEDTAVYYCYAPLTPYWGQGTQVTVSS
# B2: NJT6 nanobody (VHH) (VHH)
# VHH: QVQLVETGGDLVQPGGSLRLSCAASGLTLDYYAIGWVRQAPGKEREGVSCITPQDGNTYYDDSVMGRFTILRDNAKNMVYLQMNNLKPEDTAVYFCAAAGALTLDPSEYEYWGQGTQVTVSS
# B3: NJT4 site-specifically labelled with Texas Red via sortase-mediated tagging (VHH)
# VHH: B1 VHH
# modifications: Texas Red attached site-specifically via sortase-mediated tagging
# B4: NJT6 site-specifically labelled with Texas Red via sortase-mediated tagging (VHH)
# VHH: B2 VHH
# modifications: Texas Red attached site-specifically via sortase-mediated tagging
# B5: 64Cu-labeled NJT6 (VHH)
# VHH: B2 VHH
# modifications: 64Cu label attached using sortagging
# Assays:
# [1] = target: tenascin C in tumor ECM (LM2 tumors and lung metastases grown in NSG mice) (Homo sapiens (Human)) (UniProt P24821); assay: immunohistochemistry of lung metastases of LM2-ZsGreen-Luciferase cells in NSG mice
# [2] = target: tenascin C in tumor ECM (LM2 tumors and lung metastases grown in NSG mice) (Homo sapiens (Human)) (UniProt P24821); assay: immunohistochemistry (FIG. 12)
# [3] = target: tenascin C in tumor ECM (LM2 tumors and lung metastases grown in NSG mice) (Homo sapiens (Human)) (UniProt P24821); assay: ex vivo two-photon microscopy of orthotopic LM2 tumors after injection of 20 ug Texas red-labelled VHH
# [4] = target: tenascin C in tumor ECM (LM2 tumors and lung metastases grown in NSG mice) (Homo sapiens (Human)) (UniProt P24821); assay: ex vivo fluorescence imaging by 2-photon microscopy after injection of Texas Red-labelled VHH
# [5] = target: tenascin C in tumor ECM (LM2 tumors and lung metastases grown in NSG mice) (Homo sapiens (Human)) (UniProt P24821); assay: in vivo binding by immuno-PET/CT with 64Cu-labeled NJT6 in mice bearing LM2 tumors and metastases
Binder,binding [1],binding [2],binding [3],binding [4],binding [5]
B1,binds,binds,–,–,–
B2,binds,binds,–,–,–
B3,–,–,binds,binds,–
B4,–,–,binds,binds,–
B5,–,–,–,–,binds

# Source: patent US20260028406A1
